The other results are listed elsewhere or left out. These are further read-outs of the screen, such as a control signal, another cell line or another target. No call is given for them. The list favours compounds with an active or inconclusive main result. The note in brackets gives the kind of curve behind each potency; many fits are weak.
Test: qHTS Assay to Find Inhibitors of Chronic Active B-Cell Receptor Signaling
Conditions: ABC-DLBCL IkBa-CBG/CBR reporter, luminescence ratio (green luciferase fused to IkBa over red control in TMD8 lymphoma cells), 4 h
Method in brief: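 Doxycycline induced both beetle luciferases in TMD8 lymphoma cells; IKK-driven degradation limits the IkappaBalpha-fused green signal, while red luminescence normalises for cell number and nonspecific effects. Compounds tested up to 46 uM, 4 hrs.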

[1] = measured here: CBR red luminescence, cell number
[2] = measured here: IkBa-CBG green luminescence

Cc1ccc(/C=N/NC(=S)NCCc2ccccc2)s1
AC50 [1]: 0.562 µM [rising, full curve]

O=C(CN1CCCCCC1)Nc1ccc(Cl)cn1
AC50 [1]: 35.5 µM [falling, single point]

CCOC(=O)c1c(S(=O)(=O)N2CCCC(C(=O)Nc3ncccc3C)C2)c(C)n(C)c1C (configuration not stated)
AC50 [1]: 35.5 µM [falling, single point]

CCCCCc1nnc(N)s1
AC50 [1]: 29.1 µM [rising, single point]

COC1=C(OC)c2ccccc2C(C(=O)O)N/C1=C(/C)Nc1ccncc1 (configuration not stated)
AC50 [1]: 8.91 µM [falling, partial curve]

CCCn1c(SCC(=O)Nc2ccccc2Cl)n[nH]c1=O
AC50 [1]: 0.891 µM [rising, full curve, poor fit]

O=C(Nc1cccnc1)C1CC(=O)N(c2ccc(F)cc2)C1 (configuration not stated)
AC50 [1]: 0.112 µM [falling, full curve, poor fit]

Cc1nn(-c2ccc(F)cc2)c(Cl)c1/C=C(\CC(=O)O)c1nc2ccccc2s1
AC50 [1]: 20 µM [rising, single point]

O=C(COC(=O)C1CCN(c2ccc(C(F)(F)F)cn2)CC1)Nc1cc(F)ccc1F
AC50 [1]: 29.1 µM [rising, single point]

CCOC(=O)C1CCN(S(=O)(=O)NC[C@H]2O[C@@H](n3cnc4c(N)ncnc43)[C@H](O)[C@@H]2O)C1 (some centres not stated)
AC50 [1]: 14.6 µM [rising, partial curve]

Cc1ccc(-n2ncc3c(N(CCO)Cc4ccccc4)ncnc32)cc1
AC50 [1]: 0.282 µM [rising, full curve, poor fit]

O=C(N/N=C1\CCCc2ccccc21)c1ccccc1Cl
AC50 [1]: 35.5 µM [falling, single point]

CCCOc1cccc(C(=O)Nc2nnn(CCC)n2)c1
AC50 [1]: 7.08 µM [falling, partial curve]

CCOC(=O)c1c(/N=C/c2ccc(C)cc2O)sc2c1CCN(C)C2
AC50 [1]: 17.8 µM [rising, partial curve, poor fit]

Cc1ccc(C(=O)c2cn(-c3ccc(F)c(Cl)c3)nn2)cc1
AC50 [1]: 2.24 µM [rising, full curve, poor fit]

COc1ccc(NC(=O)N(C)C[C@H]2Oc3c(NC(=O)c4ccncc4)cccc3C(=O)N([C@H](C)CO)C[C@@H]2C)cc1
AC50 [1]: 23.1 µM [rising, single point]

COC(=O)[C@@H]1Cc2c([nH]c3ccccc23)C(C)(C)N1C(=O)CCl
AC50 [1]: 7.08 µM [falling, partial curve, poor fit]

O=C(NC1CCCN(Cc2ccc(Cl)cc2)C1)c1ccnc(Cl)c1 (configuration not stated)
AC50 [1]: 25.1 µM [falling, single point]

Cc1ccc(C)c(S(=O)(=O)/N=C2\C=C(NS(=O)(=O)c3ccccc3)C(=O)c3ccccc32)c1
AC50 [1]: 17.8 µM [falling, single point]

CCOC(=O)c1csc(NC(=O)c2cc3ccccc3o2)n1
AC50 [1]: 12.6 µM [falling, partial curve]

COc1ccc(Cc2nc3ccc(C(=O)N4CCC(N(C)C)C4)cc3o2)cc1 (configuration not stated)
AC50 [1]: 35.5 µM [rising, single point]

O=C(O)c1ccccc1SC1CC(=O)N(C2CCCCC2)C1=O (configuration not stated)
AC50 [1]: 29.1 µM [falling, single point]

CCC(C)NC(=O)c1c(N)n(/N=C/c2ccccn2)c2nc3ccccc3nc12 (configuration not stated)
AC50 [1]: 1.26 µM [falling, full curve, poor fit]

O=C(Nc1cccc([N+](=O)[O-])c1)c1ccn[nH]1
AC50 [1]: 7.94 µM [falling, partial curve, poor fit]

CCN1CCN(c2ccc(S(=O)(=O)N3CCCCC3)cc2NC(=O)c2cccc(C(F)(F)F)c2)CC1
AC50 [1]: 18.4 µM [falling, partial curve, poor fit]

CCn1ncc(CNC(=O)C2(C)CC2(Br)Br)c1C (configuration not stated)
AC50 [1]: 2.31 µM [rising, single point]

Cc1ccc(CC(=O)Nc2ccccc2-c2ccccc2)cc1C
AC50 [1]: 18.4 µM [rising, partial curve, poor fit]

CCOC(=O)COc1ccc([N+](=O)[O-])cc1
AC50 [1]: 6.51 µM [rising, partial curve, poor fit]

COc1ccc(N/C=C/C(=O)c2ccc(Cl)cc2)cc1
AC50 [1]: 0.13 µM [rising, full curve]

CCCc1cc(=O)n2[nH]c(C)c(-c3ccc(Cl)cc3)c2n1
AC50 [1]: 25.1 µM [rising, partial curve]
AC50 [2]: 25.1 µM [falling, partial curve, poor fit]

CCOC(=O)c1cccc(NC(=O)CC2Oc3ccccc3NC2=O)c1 (configuration not stated)
AC50 [2]: 20 µM [falling, single point]

CCC(C)C(=O)Nc1nc(C)c(-c2csc(Nc3cc(OC)ccc3OC)n2)s1 (configuration not stated)
AC50 [1]: 0.501 µM [falling, partial curve, poor fit]

COc1cc(/C=C2/NC(=O)N(Cc3ccccc3F)C2=O)ccc1O
AC50 [1]: 8.91 µM [falling, partial curve]

Cc1ccc(Oc2ncnc(N)c2[N+](=O)[O-])cc1
AC50 [1]: 20 µM [falling, single point]

CC(NC(=O)COC(=O)c1cc(NS(=O)(=O)c2ccc(Cl)c([N+](=O)[O-])c2)ccc1O)C1CC2CCC1C2 (configuration not stated)
AC50 [1]: 16.4 µM [falling, single point]
AC50 [2]: 23.1 µM [rising, partial curve, poor fit]

COC(=O)c1c(-c2ccc(F)cc2)csc1NC(=O)c1ccco1
AC50 [1]: 22.4 µM [rising, single point]

Cc1nc2nc(-c3ccc(Cl)cc3)[nH]n2c(=O)c1C
AC50 [1]: 2.51 µM [falling, full curve, poor fit]

O=C(Cc1cccc2ccccc12)Nc1nc2ccccc2[nH]1
AC50 [1]: 0.00461 µM [rising, full curve, poor fit]

O=C(N/N=C/c1ccccn1)C(=O)N1CCCCCC1
AC50 [1]: 22.4 µM [rising, partial curve, poor fit]

Cc1cc(OCC(=O)NNC(=S)NC(=O)c2ccc(Br)o2)ccc1Cl
AC50 [1]: 3.16 µM [rising, full curve, poor fit]
